Values quoted from earlier work, collected in US20200316038A1, “METHODS AND COMPOSITIONS FOR TREATING UREA CYCLE DISORDERS, IN PARTICULAR OTC DEFICIENCY” (CAMP4 THERAPEUTICS CORPORATION, priority 2017, published 2020).
At least one structure is not confirmed: it was looked up by name or label, or the drawing left a doubt.

Biological target: bacterial DNA-dependent RNA synthesis
Conditions: cited from earlier work

In the case of CO[C@H]1/C=C/O[C@@]2(C)Oc3c(C)c(O)c4c(O)c(c(/C=N/N5CCN(C)CC5)c(O)c4c3C2=O)NC(=O)/C(C)=C\C=C\[C@H](C)[C@H](O)[C@@H](C)[C@@H](O)[C@@H](C)[C@H](OC(C)=O)[C@@H]1C [Rifampicin], the Ki is listed as roughly 1 nM.
